Assay results published in the supplement of paper PMC6078165.
Values are relative to the signal before dosing, not to a vehicle control; the signal also falls without drug.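 Fibroblast labels name human fibroblasts: mostly primary ones from tissues such as uterus (C12385, HUF), lung (H6013), bone (Hs27A), adrenal (HADF) and skin (WS1), plus mammary HMF and breast cancer-associated Hs343T. The cancer cells are basal-like or mesenchymal-like triple-negative breast cancer lines. The paper calls a changed response a hit when it shifts by more than 3x the replicate standard deviation. The tissue of the other fibroblasts is not given here.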

Tested on: HCC1143
Assay: relative JC-1 red fluorescence (viability) vs pre-drug, coculture with fibroblast (fraction); higher = more viable cancer cells
Experimental: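 JC-1 labelled TNBC cells cocultured 1:1 (1,500 cells each) with CellTrace Violet stained primary or stromal fibroblasts in 384-well plates in FluoroBrite medium, treated with one of 42 anticancer drugs at 0.1, 1, 10 or 100 uM. JC-1 red fluorescence (mitochondrial integrity in cancer cells only) was read by plate reader every 8 h for 72 h. Values are normalised to each well's pre-drug value. The stock of one drug was tenfold lower, so its dose labels may be too high.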

CC(C)(C#N)c1cc(Cn2cncn2)cc(C(C)(C)C#N)c1 [Anastrozole]
relative JC-1 red fluorescence
Conditions	8 h	16 h	24 h	32 h	40 h	48 h	56 h	64 h	72 h
0.1 µM, coculture fibroblast: C12385	0.849	0.736	0.674	0.602	0.536	0.486	0.442	0.397	0.374
0.1 µM, coculture fibroblast: H6013	0.76	0.684	0.637	0.613	0.553	0.55	0.51	0.491	0.446
0.1 µM, coculture fibroblast: H6019	0.791	0.706	0.653	0.586	0.532	0.501	0.446	0.402	0.368
0.1 µM, coculture fibroblast: H6076	0.81	0.833	0.798	0.756	0.708	0.695	0.674	0.657	0.673
0.1 µM, coculture fibroblast: H6231	0.837	0.799	0.728	0.659	0.623	0.6	0.554	0.522	0.499
0.1 µM, coculture fibroblast: HADF	0.7528	0.687	0.656	0.646	0.546	0.517	0.48	0.448	0.429
0.1 µM, coculture fibroblast: HCFa	0.7583	0.677	0.6249	0.5913	0.506	0.487	0.439	0.398	0.366
0.1 µM, coculture fibroblast: HCPF	0.793	0.782	0.705	0.623	0.61	0.57283	0.5292	0.498	0.4825
0.1 µM, coculture fibroblast: HHSteC	0.813	0.767	0.73	0.696	0.629	0.612	0.571	0.527	0.478
0.1 µM, coculture fibroblast: HMF	0.792	0.814	0.74	0.641	0.621	0.582	0.54	0.497	0.468
0.1 µM, coculture fibroblast: HPFa	0.8851	0.77358	0.7357	0.643	0.579	0.53123	0.4605	0.4001	0.359
0.1 µM, coculture fibroblast: HUF	0.86	0.777	0.721	0.642	0.583	0.544	0.488	0.447	0.423
0.1 µM, coculture fibroblast: Hs5	0.8195	0.828	0.773	0.74	0.67	0.639	0.608	0.575	0.572
0.1 µM, coculture fibroblast: Hs27A	0.702	0.598	0.551	0.553	0.416	0.386	0.34	0.31	0.299
0.1 µM, coculture fibroblast: Hs343T	0.806	0.782	0.846	0.735	0.766	0.739	0.677	0.646	0.613
0.1 µM, coculture fibroblast: WS1	0.802	0.74	0.7028	0.635	0.583	0.543	0.499	0.464	0.443
1 µM, coculture fibroblast: C12385	0.86	0.802	0.795	0.792	0.748	0.737	0.711	0.684	0.685
1 µM, coculture fibroblast: H6013	0.758	0.667	0.627	0.61	0.538	0.531	0.493	0.479	0.431
1 µM, coculture fibroblast: H6019	0.832	0.761	0.737	0.679	0.64	0.626	0.588	0.553	0.515
1 µM, coculture fibroblast: H6076	0.7908	0.79	0.726	0.67	0.6274	0.6057	0.56046	0.535	0.527
1 µM, coculture fibroblast: H6231	0.7714	0.769	0.666	0.566	0.5771	0.5387	0.496	0.459	0.425
1 µM, coculture fibroblast: HADF	0.7558	0.692	0.648	0.6485	0.561	0.542	0.5094	0.483	0.457
1 µM, coculture fibroblast: HCFa	0.7703	0.6446	0.618	0.602	0.503	0.475	0.427	0.392	0.356
1 µM, coculture fibroblast: HCPF	0.8111	0.791	0.746	0.664	0.663	0.642	0.596	0.562	0.545
1 µM, coculture fibroblast: HHSteC	0.883	0.805	0.7862	0.76243	0.699	0.676	0.632	0.606	0.555
1 µM, coculture fibroblast: HMF	0.8009	0.797	0.742	0.656	0.639	0.606	0.548	0.514	0.494
1 µM, coculture fibroblast: HPFa	0.912	0.813	0.766	0.696	0.615	0.575	0.508	0.459	0.415
1 µM, coculture fibroblast: HUF	0.9	0.825	0.762	0.684	0.626	0.582	0.519	0.481	0.444
1 µM, coculture fibroblast: Hs5	0.83	0.862	0.7929	0.7302	0.6782	0.641	0.5973	0.562	0.539
1 µM, coculture fibroblast: Hs27A	0.7418	0.67371	0.6513	0.679	0.5818	0.58	0.536	0.504	0.462
1 µM, coculture fibroblast: Hs343T	0.803	0.8	0.74	0.673	0.633	0.595	0.543	0.516	0.492
1 µM, coculture fibroblast: WS1	0.824	0.7049	0.661	0.584	0.518	0.482	0.443	0.411	0.394
10 µM, coculture fibroblast: C12385	0.86	0.7653	0.6995	0.637	0.573	0.534	0.489	0.445	0.417
10 µM, coculture fibroblast: H6013	0.8172	0.7466	0.7119	0.692	0.634	0.63	0.595	0.579	0.536
10 µM, coculture fibroblast: H6019	0.7985	0.7104	0.6567	0.5918	0.5413	0.505	0.454	0.414	0.38
10 µM, coculture fibroblast: H6076	0.795	0.829	0.764	0.687	0.663	0.632	0.605	0.576	0.576
10 µM, coculture fibroblast: H6231	0.805	0.884	0.772	0.584	0.651	0.597	0.557	0.514	0.486
10 µM, coculture fibroblast: HADF	0.754	0.661	0.639	0.652	0.555	0.533	0.502	0.478	0.478
10 µM, coculture fibroblast: HCFa	0.828	0.739	0.713	0.682	0.61	0.591	0.549	0.517	0.49
10 µM, coculture fibroblast: HCPF	0.81043	0.813	0.749	0.6409	0.645	0.605	0.558	0.52	0.494
10 µM, coculture fibroblast: HHSteC	0.819	0.741	0.707	0.676	0.593	0.562	0.514	0.486	0.438
10 µM, coculture fibroblast: HMF	0.799	0.913	0.835	0.681	0.715	0.669	0.61	0.562	0.518
10 µM, coculture fibroblast: HPFa	0.93	0.8251	0.779	0.692	0.635	0.603	0.553	0.503	0.47
10 µM, coculture fibroblast: HUF	0.8718	0.761	0.695	0.623	0.575	0.537	0.485	0.449	0.42
10 µM, coculture fibroblast: Hs5	0.83086	0.9099	0.8476	0.7777	0.738	0.6905	0.641	0.613	0.591
10 µM, coculture fibroblast: Hs27A	0.748	0.666	0.64	0.659	0.538	0.515	0.47	0.438	0.429
10 µM, coculture fibroblast: Hs343T	0.8086	0.839	0.771	0.679	0.6604	0.611	0.556	0.532	0.493
10 µM, coculture fibroblast: WS1	0.82099	0.7154	0.6461	0.572	0.5128	0.459	0.412	0.378	0.349
100 µM, coculture fibroblast: C12385	0.8531	0.78	0.711	0.6488	0.5925	0.53181	0.4967	0.455	0.425
100 µM, coculture fibroblast: H6013	0.772	0.723	0.674	0.661	0.5768	0.554	0.52	0.4961	0.4912
100 µM, coculture fibroblast: H6019	0.843	0.761	0.719	0.662	0.633	0.608	0.574	0.531	0.493
100 µM, coculture fibroblast: H6076	0.7997	0.826	0.784	0.7408	0.706	0.697	0.65523	0.6344	0.624
100 µM, coculture fibroblast: H6231	0.8105	0.832	0.7666	0.646	0.6865	0.6585	0.6183	0.581	0.5544
100 µM, coculture fibroblast: HADF	0.74	0.669	0.632	0.64	0.538	0.509	0.474	0.444	0.453
100 µM, coculture fibroblast: HCFa	0.796	0.712	0.68	0.68	0.595	0.57	0.528	0.4941	0.483
100 µM, coculture fibroblast: HCPF	0.803	0.819	0.773	0.673	0.696	0.663	0.621	0.604	0.59
100 µM, coculture fibroblast: HHSteC	0.828	0.781	0.761	0.723	0.64	0.614	0.567	0.527	0.49
100 µM, coculture fibroblast: HMF	0.8051	0.8047	0.764	0.676	0.683	0.658	0.609	0.589	0.565
100 µM, coculture fibroblast: HPFa	0.93	0.857	0.837	0.762	0.698	0.667	0.619	0.584	0.544
100 µM, coculture fibroblast: HUF	0.8872	0.8187	0.777	0.707	0.66	0.634	0.586	0.552	0.522
100 µM, coculture fibroblast: Hs5	0.8338	0.8602	0.8109	0.756	0.7053	0.6767	0.6458	0.6184	0.6075
100 µM, coculture fibroblast: Hs27A	0.72658	0.654	0.60084	0.619	0.4782	0.4508	0.4	0.368	0.379
100 µM, coculture fibroblast: Hs343T	0.816	0.8704	0.811	0.708	0.712	0.673	0.634	0.608	0.5752
100 µM, coculture fibroblast: WS1	0.8472	0.759	0.722	0.654	0.598	0.562	0.514	0.476	0.447
